These results are taken from PMC9525012.

In test [1] the target is human TIM-3-Fc fusion protein (human), Q8TDQ0. As to the kind of experiment: Luminex bead assay; competition: TIM-3 Fc beads incubated with serially diluted antibody 1.5 hours at RT, washed, then galectin-9 PE at 4 μg/ml for 45 minutes at RT; both purified. Particulars: remark: other sources report otherwise.
Test [2] shares this target. As to the kind of experiment: Luminex bead assay; PE-labelled galectin-9 titrated on Luminex magnetic beads coated with two concentrations of TIM-3 Fc; both purified. The conditions noted are these: remark: other sources report otherwise.
Test [3] has the same target. The test can be described thus: MSD (MesoScale Discovery) plate assay; competition: plate coated with TIM-3 Fc at 2 μg/ml; sabatolimab in 1:2 serial dilutions 1 hour at RT, washed, then 3 μg/ml galectin-9 SULFO-TAG 1 hour at RT; both purified. The conditions noted are these: remark: other sources report otherwise.
The target in test [4] is Sabatolimab, humanized anti-TIM-3 monoclonal antibody (hIgG4, S228P). As to the kind of experiment: SPR; Biacore; sabatolimab captured (~50 RU) by a human Fab capture antibody amine-coupled on a CM5 chip; TIM-3/His as analyte, 90 nM diluted 1:3, seven concentrations, HBS-EP+ buffer; 1:1 binding model, double reference subtraction; both purified. On the technique in general: Surface plasmon resonance follows binding to a sensor surface in real time, without labels.

These are yes or no findings as the source states them, for the method shown. Some binding calls cover weakened binding; strength is not graded here. For some of these results: Sequences can lack the tags named with a protein.

B1: recombinant human galectin-9, PE-labelled, O00182 1-355 (ligand)
chain: MAFSGSQAPYLSPAVPFSGTIQGGLQDGLQITVNGTVLSSSGTRFAVNFQTGFSGNDIAFHFNPRFEDGGYVVCNTRQNGSWGPEERKTHMPFQKGMPFDLCFLVQSSDFKVMVNGILFVQYFHRVPFHRVDTISVNGSVQLSYISFQNPRTVPVQPAFSTVPFSQPVCFPPRPRGRRQKPPGVWPANPAPITQTVIHTVQSAPGQMFSTPAIPPMMYPHPAYPMPFITTILGGLYPSKSILLSGTVLPSAQRFHINLCSGNHIAFHLNPRFDENAVVRNTQIDNSWGSEERSLPRKMPFVRGQSFSVWILCEAHCLKVAVDGQHLFEYYHRLRNLPTINRLEVGGDIQLTHVQT
modifications: here or on the partner: conjugated to PE (Lightning Link R-PE Antibody Labeling Kit)
For B1, the binding result in test [1] and in test [2] was “binds” throughout.

B2: human recombinant galectin-9, SULFO-TAG-labelled, O00182 1-355 (ligand)
chain: B1 chain
modifications: here or on the partner: conjugated with MSD GOLD SULFO-TAG NHS-Ester
On to B2, for which the binding entry in test [3] is given as “binds”.

B3: recombinant murine TIM-3/His (receptor, UniProt Q8VIM0 20-193)
chain: RSLENAYVFEVGKNAYLPCSYTLSTPGALVPMCWGKGFCPWSQCTNELLRTDERNVTYQKSSRYQLKGDLNKGDVSLIIKNVTLDDHGTYCCRIQFPGLMNDKKLELKLDIKAAKVTPAQTAHGDSTTASPRTLTTERNGSETQTLVTLHNNNGTKISTWADEIKDSGETIRTA
For B3, the binding entry in test [4] is reported as “no binding (tested: 90 nM)”.
